From US20220326125A1, “BIOLOGICAL TISSUE STAINING REAGENT, BIOLOGICAL TISSUE STAINING KIT AND BIOLOGICAL TISSUE STAINING METHOD” (CUBICStars, Inc., priority 2019, published 2022) come the findings set out here.

The test system of the data set is defatted mouse cerebral hemisphere. In words: 3D nuclear staining at different salt concentrations. To be noted: H-S and CUBIC-1A at the higher NaCl concentration (500 mM vs 5 or 25 mM); 32° C., 24 hours. As for the experimental part:
A defatted cerebral hemisphere cut out from the whole brain was provided as a sample.
For investigating the effect of the NaCl concentration, the NaCl concentration in CUBIC-1A was set to 25 mM or 500 mM, and NaCl was added to H-S to 5 mM or 500 mM. The sample was washed with PBS, and then soaked in PBS containing 40% by weight sucrose. From each sample obtained, a frozen section was prepared. For post-2D staining, the frozen section was soaked in PBS containing DAPI (1:500; manufactured by Dojindo Molecular Technologies; #D0523) at room temperature for 30 minutes.

Consider `CC[N+](C)(CC)CCC[n+]1c(-c2ccccc2)c2cc(N)ccc2c2ccc(N)cc21.[I-].[I-]` [PI, propidium iodide, reference compound], for which the “uniformity of nuclear staining images” value is given as “more uniform nuclear staining images”.

SYTO 16: the “uniformity of nuclear staining images” value is “more uniform nuclear staining images”.
